Experimental data: the supplement of paper PMC10060354, “Discovery of a small molecule ligand of FRS2 that inhibits invasion and tumor growth” (Cellular Oncology, 2022)
Repeats are few or missing, and single values can be far off.

Sequences of proteins named here, by UniProt entry; tags and fusion partners are left off. A change or cut given only in a name is not applied to a line headed by its entry.
UniProt O15047, whole entry: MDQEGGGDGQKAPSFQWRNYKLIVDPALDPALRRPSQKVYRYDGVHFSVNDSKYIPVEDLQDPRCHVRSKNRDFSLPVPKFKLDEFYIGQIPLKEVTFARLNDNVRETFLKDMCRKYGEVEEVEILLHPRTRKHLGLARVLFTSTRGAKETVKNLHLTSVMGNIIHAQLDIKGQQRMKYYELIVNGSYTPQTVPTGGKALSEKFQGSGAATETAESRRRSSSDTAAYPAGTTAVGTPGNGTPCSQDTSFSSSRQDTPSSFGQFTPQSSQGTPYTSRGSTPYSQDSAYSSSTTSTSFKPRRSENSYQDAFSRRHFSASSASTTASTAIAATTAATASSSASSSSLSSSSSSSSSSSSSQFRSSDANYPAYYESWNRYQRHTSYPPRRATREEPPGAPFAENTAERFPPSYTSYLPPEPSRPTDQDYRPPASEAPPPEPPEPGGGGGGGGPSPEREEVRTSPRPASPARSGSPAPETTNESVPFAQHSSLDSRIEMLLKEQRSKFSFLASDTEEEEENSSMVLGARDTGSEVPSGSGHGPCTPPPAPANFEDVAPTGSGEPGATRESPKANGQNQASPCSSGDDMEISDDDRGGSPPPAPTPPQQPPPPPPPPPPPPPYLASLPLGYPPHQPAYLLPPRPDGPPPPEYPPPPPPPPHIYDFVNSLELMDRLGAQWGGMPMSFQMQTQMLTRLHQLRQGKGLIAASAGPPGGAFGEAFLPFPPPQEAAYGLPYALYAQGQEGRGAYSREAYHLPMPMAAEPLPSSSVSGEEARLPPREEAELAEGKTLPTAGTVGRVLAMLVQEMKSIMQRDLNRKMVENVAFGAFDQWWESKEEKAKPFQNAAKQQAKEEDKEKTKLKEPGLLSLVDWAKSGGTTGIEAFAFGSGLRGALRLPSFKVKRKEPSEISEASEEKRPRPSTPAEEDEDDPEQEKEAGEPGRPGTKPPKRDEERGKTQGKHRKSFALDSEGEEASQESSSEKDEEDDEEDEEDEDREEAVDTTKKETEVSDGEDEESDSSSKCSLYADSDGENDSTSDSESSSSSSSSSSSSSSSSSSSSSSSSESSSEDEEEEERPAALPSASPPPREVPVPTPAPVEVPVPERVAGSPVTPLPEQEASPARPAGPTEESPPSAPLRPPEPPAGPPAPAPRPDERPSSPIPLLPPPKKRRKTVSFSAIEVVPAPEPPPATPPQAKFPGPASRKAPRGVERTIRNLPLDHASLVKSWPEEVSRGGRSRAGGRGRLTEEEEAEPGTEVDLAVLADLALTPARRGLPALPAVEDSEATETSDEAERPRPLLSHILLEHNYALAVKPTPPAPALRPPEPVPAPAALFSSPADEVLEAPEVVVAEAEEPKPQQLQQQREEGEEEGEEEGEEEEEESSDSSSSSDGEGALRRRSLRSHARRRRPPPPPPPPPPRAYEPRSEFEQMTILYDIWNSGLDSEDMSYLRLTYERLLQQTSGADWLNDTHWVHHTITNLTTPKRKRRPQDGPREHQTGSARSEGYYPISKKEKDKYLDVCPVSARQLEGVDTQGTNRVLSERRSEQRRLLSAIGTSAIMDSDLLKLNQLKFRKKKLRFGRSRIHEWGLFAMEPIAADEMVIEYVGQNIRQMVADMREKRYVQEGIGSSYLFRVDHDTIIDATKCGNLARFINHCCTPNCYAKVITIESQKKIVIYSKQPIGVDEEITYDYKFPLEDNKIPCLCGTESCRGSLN
UniProt P61769, whole entry: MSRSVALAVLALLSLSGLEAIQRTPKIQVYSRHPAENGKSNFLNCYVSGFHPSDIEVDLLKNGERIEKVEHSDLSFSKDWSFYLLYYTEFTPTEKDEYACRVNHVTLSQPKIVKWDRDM
UniProt P09104, whole entry: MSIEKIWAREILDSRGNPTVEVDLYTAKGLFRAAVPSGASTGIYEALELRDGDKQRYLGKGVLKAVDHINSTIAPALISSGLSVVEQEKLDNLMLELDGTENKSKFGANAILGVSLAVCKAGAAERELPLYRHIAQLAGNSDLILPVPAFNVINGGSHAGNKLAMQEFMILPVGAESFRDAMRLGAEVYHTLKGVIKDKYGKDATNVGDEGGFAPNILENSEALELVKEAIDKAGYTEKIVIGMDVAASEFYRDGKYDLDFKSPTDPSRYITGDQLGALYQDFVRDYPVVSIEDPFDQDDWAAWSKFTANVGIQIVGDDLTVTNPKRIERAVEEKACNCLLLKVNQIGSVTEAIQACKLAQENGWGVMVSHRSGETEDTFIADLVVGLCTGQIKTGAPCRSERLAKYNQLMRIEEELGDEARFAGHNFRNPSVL
UniProt Q9P0T7: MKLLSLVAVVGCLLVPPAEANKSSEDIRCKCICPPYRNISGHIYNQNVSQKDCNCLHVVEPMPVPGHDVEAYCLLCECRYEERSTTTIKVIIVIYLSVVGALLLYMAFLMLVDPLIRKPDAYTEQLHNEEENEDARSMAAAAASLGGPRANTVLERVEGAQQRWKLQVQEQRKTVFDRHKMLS
UniProt Q8IZN3: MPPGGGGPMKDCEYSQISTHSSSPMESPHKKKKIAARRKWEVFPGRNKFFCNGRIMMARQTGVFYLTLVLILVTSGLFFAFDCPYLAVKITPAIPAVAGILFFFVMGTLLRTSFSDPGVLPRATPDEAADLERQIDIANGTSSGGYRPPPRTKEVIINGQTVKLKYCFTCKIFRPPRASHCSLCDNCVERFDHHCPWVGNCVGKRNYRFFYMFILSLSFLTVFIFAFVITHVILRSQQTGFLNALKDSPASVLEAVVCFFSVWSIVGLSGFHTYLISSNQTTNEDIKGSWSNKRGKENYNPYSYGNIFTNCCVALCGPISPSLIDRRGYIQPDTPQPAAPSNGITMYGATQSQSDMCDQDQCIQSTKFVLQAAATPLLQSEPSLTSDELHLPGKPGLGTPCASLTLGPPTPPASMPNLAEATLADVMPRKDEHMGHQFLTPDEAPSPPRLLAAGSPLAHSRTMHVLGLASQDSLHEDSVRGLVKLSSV
UniProt O95155, whole entry: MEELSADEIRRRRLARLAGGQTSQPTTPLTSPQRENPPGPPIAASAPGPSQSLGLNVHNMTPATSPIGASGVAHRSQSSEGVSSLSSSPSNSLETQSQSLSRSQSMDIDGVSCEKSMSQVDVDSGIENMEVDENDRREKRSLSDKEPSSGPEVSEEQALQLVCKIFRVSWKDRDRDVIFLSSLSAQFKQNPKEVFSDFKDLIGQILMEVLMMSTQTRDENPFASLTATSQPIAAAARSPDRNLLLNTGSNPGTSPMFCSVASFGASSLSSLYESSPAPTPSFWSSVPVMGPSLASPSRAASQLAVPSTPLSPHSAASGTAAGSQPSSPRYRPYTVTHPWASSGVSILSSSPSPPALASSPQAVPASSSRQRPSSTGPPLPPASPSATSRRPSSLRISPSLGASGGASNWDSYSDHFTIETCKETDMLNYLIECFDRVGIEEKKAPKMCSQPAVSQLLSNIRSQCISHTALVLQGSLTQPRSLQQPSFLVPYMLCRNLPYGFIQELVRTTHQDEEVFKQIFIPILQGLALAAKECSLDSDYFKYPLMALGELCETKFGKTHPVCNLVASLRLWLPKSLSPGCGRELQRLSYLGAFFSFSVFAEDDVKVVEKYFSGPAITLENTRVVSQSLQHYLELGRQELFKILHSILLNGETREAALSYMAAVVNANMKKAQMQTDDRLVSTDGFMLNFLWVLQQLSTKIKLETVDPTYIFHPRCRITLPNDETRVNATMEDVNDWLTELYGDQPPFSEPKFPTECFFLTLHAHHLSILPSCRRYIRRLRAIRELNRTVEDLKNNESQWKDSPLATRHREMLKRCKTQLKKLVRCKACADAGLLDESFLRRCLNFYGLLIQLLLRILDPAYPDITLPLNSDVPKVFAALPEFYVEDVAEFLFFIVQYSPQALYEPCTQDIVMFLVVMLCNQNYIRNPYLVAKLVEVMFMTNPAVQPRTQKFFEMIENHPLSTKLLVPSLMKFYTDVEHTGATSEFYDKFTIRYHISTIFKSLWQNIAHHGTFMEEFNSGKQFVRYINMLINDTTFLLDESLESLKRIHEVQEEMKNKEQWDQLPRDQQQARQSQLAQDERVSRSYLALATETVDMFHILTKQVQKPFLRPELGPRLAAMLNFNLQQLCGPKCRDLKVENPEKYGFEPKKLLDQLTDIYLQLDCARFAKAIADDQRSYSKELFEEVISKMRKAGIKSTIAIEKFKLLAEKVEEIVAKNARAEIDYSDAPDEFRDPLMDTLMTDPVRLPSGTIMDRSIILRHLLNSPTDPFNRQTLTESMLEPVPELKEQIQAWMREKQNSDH
UniProt P78381: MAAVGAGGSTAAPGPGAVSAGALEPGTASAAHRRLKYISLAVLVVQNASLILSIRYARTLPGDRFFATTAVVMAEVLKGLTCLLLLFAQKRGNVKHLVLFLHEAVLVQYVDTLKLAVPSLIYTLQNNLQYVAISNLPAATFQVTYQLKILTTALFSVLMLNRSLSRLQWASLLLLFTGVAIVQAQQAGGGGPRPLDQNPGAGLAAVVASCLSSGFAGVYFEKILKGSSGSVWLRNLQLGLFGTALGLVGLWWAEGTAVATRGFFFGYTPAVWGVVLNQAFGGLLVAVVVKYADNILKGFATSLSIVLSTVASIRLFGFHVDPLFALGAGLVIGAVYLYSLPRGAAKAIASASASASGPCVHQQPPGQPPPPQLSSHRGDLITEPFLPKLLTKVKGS
UniProt P15954, whole entry: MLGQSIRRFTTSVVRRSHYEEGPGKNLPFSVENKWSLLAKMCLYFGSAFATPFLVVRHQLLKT
UniProt P30711: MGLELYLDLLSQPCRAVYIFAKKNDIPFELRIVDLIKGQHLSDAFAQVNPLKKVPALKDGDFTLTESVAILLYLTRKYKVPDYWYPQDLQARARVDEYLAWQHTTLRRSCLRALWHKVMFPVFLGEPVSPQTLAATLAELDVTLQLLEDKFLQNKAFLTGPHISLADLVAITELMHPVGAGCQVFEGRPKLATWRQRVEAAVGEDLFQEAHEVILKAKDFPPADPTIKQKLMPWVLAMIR
UniProt P12109: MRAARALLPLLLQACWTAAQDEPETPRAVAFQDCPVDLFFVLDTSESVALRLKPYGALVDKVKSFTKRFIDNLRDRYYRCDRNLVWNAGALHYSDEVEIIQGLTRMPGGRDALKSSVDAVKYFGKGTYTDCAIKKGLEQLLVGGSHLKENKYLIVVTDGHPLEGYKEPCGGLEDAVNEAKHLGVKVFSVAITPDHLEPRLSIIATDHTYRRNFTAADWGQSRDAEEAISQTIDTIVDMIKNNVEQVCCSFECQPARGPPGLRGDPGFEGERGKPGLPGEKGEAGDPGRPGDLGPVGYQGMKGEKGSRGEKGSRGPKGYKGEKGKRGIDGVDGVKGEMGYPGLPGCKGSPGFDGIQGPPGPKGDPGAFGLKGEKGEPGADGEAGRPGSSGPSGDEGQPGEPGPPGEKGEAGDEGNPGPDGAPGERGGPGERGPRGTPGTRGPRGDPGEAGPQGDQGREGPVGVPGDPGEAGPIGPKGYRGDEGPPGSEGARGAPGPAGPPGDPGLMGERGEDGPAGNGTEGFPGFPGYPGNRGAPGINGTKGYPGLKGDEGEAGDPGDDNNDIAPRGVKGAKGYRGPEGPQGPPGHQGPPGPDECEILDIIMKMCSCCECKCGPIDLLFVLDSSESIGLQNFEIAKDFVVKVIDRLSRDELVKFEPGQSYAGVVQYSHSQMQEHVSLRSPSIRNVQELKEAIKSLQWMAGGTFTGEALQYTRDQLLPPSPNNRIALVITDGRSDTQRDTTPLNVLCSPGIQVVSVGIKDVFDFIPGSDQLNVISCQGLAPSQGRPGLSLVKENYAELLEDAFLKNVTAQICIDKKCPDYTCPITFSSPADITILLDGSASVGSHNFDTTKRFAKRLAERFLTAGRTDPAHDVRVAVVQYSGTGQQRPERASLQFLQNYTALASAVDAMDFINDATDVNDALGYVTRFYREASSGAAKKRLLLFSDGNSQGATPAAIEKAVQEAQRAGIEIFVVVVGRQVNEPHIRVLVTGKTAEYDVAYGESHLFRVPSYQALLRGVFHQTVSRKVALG
UniProt O60513: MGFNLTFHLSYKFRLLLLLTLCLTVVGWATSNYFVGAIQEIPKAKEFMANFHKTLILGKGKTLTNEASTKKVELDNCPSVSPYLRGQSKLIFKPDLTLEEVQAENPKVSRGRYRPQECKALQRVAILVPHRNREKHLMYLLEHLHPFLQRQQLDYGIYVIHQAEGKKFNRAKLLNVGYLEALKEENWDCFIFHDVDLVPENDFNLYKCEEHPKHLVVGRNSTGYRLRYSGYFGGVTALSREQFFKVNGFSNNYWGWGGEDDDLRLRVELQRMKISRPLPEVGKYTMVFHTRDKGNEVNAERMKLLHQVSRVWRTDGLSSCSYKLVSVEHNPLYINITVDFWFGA
UniProt Q9ULW3: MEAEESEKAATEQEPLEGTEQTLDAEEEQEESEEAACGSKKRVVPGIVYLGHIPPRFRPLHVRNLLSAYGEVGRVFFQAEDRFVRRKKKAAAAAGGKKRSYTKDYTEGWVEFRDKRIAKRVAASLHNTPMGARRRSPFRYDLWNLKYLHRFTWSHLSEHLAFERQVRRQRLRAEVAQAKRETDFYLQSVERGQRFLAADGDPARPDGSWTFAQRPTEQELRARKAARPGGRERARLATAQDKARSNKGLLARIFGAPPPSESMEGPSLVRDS

Compound: [O-][N+](C(C1=C(C(O)=C2)NC(C(C=C3)=CC=C3Cl)C4C1C=CC4)=C2Cl)=O
Test: melting temperature shift (compound 7 minus DMSO); higher = compound stabilises the protein
Settings: 10 µM
Experimental: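 Thermal proteome profiling (TMT mass spectrometry) in intact DAOY medulloblastoma cells or DAOY lysates treated with 10 µM compound 7 or DMSO, heated at 10 temperatures from 40.5 to 73.8 °C for 3 min. Melting curves were fitted with the Bioconductor TPP package, and the melting point difference between compound and vehicle is reported per protein (single curve per condition).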

[1] = system: DAOY cell lysate, treatment time: 20 min, 4 °C
[2] = system: intact DAOY cells, treatment time: 90 min, 37 °C

Row | Target | melting temperature shift [1] | melting temperature shift [2]
1 | SETD1A (UniProt O15047) | -0.834 °C | 
2 | B2M (UniProt P61769) | 1.71 °C | 
3 | UniProt Q9BWQ6 | -0.997 °C | 
4 | UniProt Q69YH5 | 0.178 °C | 
5 | UniProt P09104 | -0.918 °C | 
6 | NT5DC3 (UniProt Q86UY8) | 0.429 °C | -0.251 °C
7 | LATS1 (UniProt O95835) | -0.868 °C | 
8 | MTHFS (UniProt P49914) | 0.295 °C | 0.49 °C
9 | RANBP3 (UniProt Q9H6Z4) | -2.67 °C | 0.0832 °C
10 | RAP2C (UniProt Q9Y3L5) | 2.75 °C | -0.09 °C
11 | CTSB (UniProt P07858) | -0.0369 °C | -1.38 °C
12 | UniProt P42677 | -0.978 °C | -1.59 °C
13 | TMEM9 (UniProt Q9P0T7) | -1.18 °C | 
14 | SREK1 (UniProt Q8WXA9) | 0.614 °C | -1.23 °C
15 | CRNKL1 (UniProt Q9BZJ0) | -0.587 °C | -0.237 °C
16 | UniProt Q96QD9 | 1.34 °C | 
17 | UniProt Q9UP38 |  | -2.85 °C
18 | UniProt P60709 | 0.187 °C | 0.597 °C
19 | MTMR10 (UniProt Q9NXD2) | -0.636 °C | 
20 | UniProt Q8IZN3 | -0.517 °C | 
21 | RP2 (UniProt O75695) | 1.24 °C | 0.184 °C
22 | CLSPN (UniProt Q9HAW4) | -2.2 °C | 
23 | UniProt Q8N2E6 |  | -0.636 °C
24 | UBE4B (UniProt O95155) | -0.212 °C | 0.825 °C

As entered above:
CLSPN (UniProt Q9HAW4) – melting temperature shift [1]: -2.2 °C
UniProt P60709 – melting temperature shift [1]: 0.187 °C
UniProt Q96QD9 – melting temperature shift [1]: 1.34 °C
UniProt Q8N2E6 – melting temperature shift [2]: -0.636 °C

Remaining list, next part

Row | Target | melting temperature shift [1] | melting temperature shift [2]
25 | UniProt Q9BSK2 | 3.99 °C | 
26 | PSMD13 (UniProt Q9UNM6) | -0.673 °C | -1.15 °C
27 | UniProt Q15560 |  | 0.363 °C
28 | BIN1 (UniProt O00499) | -0.713 °C | 0.114 °C
29 | HSPB8 (UniProt Q9UJY1) |  | 2.67 °C
30 | WRAP53 (UniProt Q9BUR4) | 0.209 °C | 1.5 °C
31 | ZNF638 (UniProt Q14966) | 0.641 °C | 0.288 °C
32 | CNOT3 (UniProt O75175) | -0.551 °C | -0.457 °C
33 | UniProt Q9NRX6 | -0.845 °C | 
34 | TSC22D1 (UniProt Q15714) |  | 2.5 °C
35 | CINP (UniProt Q9BW66) | -2.74 °C | 0.873 °C
36 | UniProt Q9UN36 | -0.851 °C | 
37 | UniProt P78381 | 1.36 °C | -2.52 °C
38 | AP3B1 (UniProt O00203) | -0.398 °C | -1.11 °C
39 | UniProt P29279 | 2.1 °C | 1.45 °C
40 | UniProt P15954 | 3.31 °C | 
41 | UniProt P09488 | -0.352 °C | -1.95 °C
42 | UniProt Q9UJV3 |  | 0.0732 °C
43 | CLTCL1 (UniProt P53675) |  | 0.68 °C
44 | TRAPPC10 (UniProt P48553) | -1.28 °C | -2.25 °C
45 | GSTT1 (UniProt P30711) | -0.0168 °C | -5.17 °C
46 | UniProt Q2PPJ7 |  | -0.283 °C
47 | UniProt A8MTA8 | -3.32 °C | 
48 | UniProt P12109 | 0.614 °C | 0.662 °C

Row | Target | melting temperature shift [1] | melting temperature shift [2]
49 | KHSRP (UniProt Q92945) | 0.388 °C | -2.63 °C
50 | TBC1D2 (UniProt Q9BYX2) | 0.101 °C | -3.46 °C
51 | TOP2A (UniProt P11388) | 0.455 °C | -0.224 °C
52 | KIF11 (UniProt P52732) | -0.632 °C | -0.383 °C
53 | UniProt Q6ZMR3 |  | -1.73 °C
54 | CCDC9 (UniProt Q9Y3X0) | -1.3 °C | 
55 | UniProt P62837 | -1.23 °C | 0.323 °C
56 | FAM114A1 (UniProt Q8IWE2) | -0.927 °C | 0.442 °C
57 | CCDC43 (UniProt Q96MW1) | 0.685 °C | -0.0807 °C
58 | TIMM21 (UniProt Q9BVV7) | 3.84 °C | 0.0812 °C
59 | UniProt A8MTJ3 |  | 0.268 °C
60 | SRP9 (UniProt P49458) | -1.49 °C | 0.47 °C
61 | BLMH (UniProt Q13867) | -0.234 °C | 3.97 °C
62 | FKBP15 (UniProt Q5T1M5) | -0.327 °C | 0.758 °C
63 | GLUL (UniProt P15104) | -2.12 °C | 7.22 °C
64 | LCMT2 (UniProt O60294) | -2.16 °C | 1.89 °C
65 | LUC7L3 (UniProt O95232) | -0.135 °C | -0.223 °C
66 | UniProt Q8IXM2 | 0.94 °C | -1.58 °C
67 | UniProt A6QL63 |  | -0.5 °C
68 | PNPLA8 (UniProt Q9NP80) | -1.46 °C | 0.108 °C
69 | UniProt Q8WXF0 |  | 0.114 °C
70 | UniProt P0C7V7 |  | 0.0203 °C
71 | EIF5B (UniProt O60841) | 0.0759 °C | -0.283 °C
72 | ORC2 (UniProt Q13416) | 1.22 °C | -2.77 °C

Row | Target | melting temperature shift [1] | melting temperature shift [2]
73 | DOK1 (UniProt Q99704) | -2.53 °C | -0.538 °C
74 | SEC63 (UniProt Q9UGP8) | 0.971 °C | -1.41 °C
75 | UniProt Q9UIS9 |  | 1.16 °C
76 | NAA10 (UniProt P41227) | 0.27 °C | -0.517 °C
77 | B4GALT4 (UniProt O60513) | -0.354 °C | 
78 | RAB9A (UniProt P51151) | 0.649 °C | -2 °C
79 | RFX5 (UniProt P48382) | -0.2 °C | -0.581 °C
80 | DLGAP5 (UniProt Q15398) | -0.183 °C | 0.208 °C
81 | UniProt Q9UJJ9 | 0.809 °C | -1.74 °C
82 | PRCC (UniProt Q92733) | -0.495 °C | 
83 | SMARCA4 (UniProt P51532) | -0.269 °C | -0.924 °C
84 | GNB2 (UniProt P62879) | 1.1 °C | -0.428 °C
85 | QRSL1 (UniProt Q9H0R6) | 0.013 °C | -0.863 °C
86 | UniProt Q9ULW3 | 0.0255 °C | 
87 | UniProt Q9Y587 | 0.334 °C | 
88 | CYP51A1 (UniProt Q16850) | 2.36 °C | -0.336 °C
89 | CLASRP (UniProt Q8N2M8) | -0.0176 °C | 
90 | KAT7 (UniProt O95251) | -1.32 °C | 
91 | RNF123 (UniProt Q5XPI4) | 0.445 °C | -0.132 °C
92 | PELO (UniProt Q9BRX2) | 0.0433 °C | -0.936 °C
93 | PPP6C (UniProt O00743) | -0.656 °C | 0.579 °C
94 | ELMOD2 (UniProt Q8IZ81) | 1.1 °C | 
95 | UniProt Q9NY61 | 0.647 °C | 
